About 20 (1%) of roughly 1,600 compounds were called active.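 The calls were made as follows: active = ratio of uncleaved NAD to its breakdown product ADP-ribose above 4, meaning the enzyme was inhibited; inactive = the rest.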 The list shows a part of the results.

Amino acid sequences for entries named in this document (tags omitted). A change or cut given only in a name is not applied to a line headed by its entry.
UniProt Q6SZW1: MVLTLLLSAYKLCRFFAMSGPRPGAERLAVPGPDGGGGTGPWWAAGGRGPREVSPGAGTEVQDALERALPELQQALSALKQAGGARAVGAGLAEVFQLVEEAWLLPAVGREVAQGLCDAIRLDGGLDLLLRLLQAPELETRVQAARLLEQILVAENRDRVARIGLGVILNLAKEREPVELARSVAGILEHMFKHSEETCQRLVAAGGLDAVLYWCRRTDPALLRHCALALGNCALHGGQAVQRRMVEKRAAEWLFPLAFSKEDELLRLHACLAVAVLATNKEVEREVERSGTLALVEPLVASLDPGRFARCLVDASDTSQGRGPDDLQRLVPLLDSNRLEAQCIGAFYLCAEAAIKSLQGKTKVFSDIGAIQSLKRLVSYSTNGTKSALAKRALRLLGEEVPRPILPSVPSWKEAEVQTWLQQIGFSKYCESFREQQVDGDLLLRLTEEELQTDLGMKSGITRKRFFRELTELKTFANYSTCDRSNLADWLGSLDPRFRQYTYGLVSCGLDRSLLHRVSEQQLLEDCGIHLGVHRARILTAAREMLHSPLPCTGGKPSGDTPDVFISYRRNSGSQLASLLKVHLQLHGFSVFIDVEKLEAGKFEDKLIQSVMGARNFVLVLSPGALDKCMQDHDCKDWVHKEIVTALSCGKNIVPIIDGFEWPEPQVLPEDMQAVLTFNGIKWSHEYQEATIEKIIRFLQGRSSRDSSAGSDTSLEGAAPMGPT

This test deals with NAD(+) hydrolase SARM1 (Homo sapiens) (UniProt Q6SZW1). Description: inhibition of SAM-TIR NAD hydrolysis to ADPR – cell lysate, HPLC readout, primary screen (AID 1508615).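 Also: substrate NAD at 5 µM with 60 min at 37 °C.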 The following applies: HEK293T SAM-TIR lysate, NAD/ADPR ratio by HPLC; at 5 µM; stronger effect = higher value.
As for `OCC1CCCC(n2cnc3c(=S)nc[nH]c32)O1` (stereo not given), the NAD/ADPR ratio is inactive: 3. With `CC1=CC(C)(C)Nc2ccc(Cc3ccc4c(c3)C(C)=CC(C)(C)N4)cc21` the figure was inactive: 3; with `Cn1c([N+](=O)[O-])cnc1N1CCN(c2nncs2)C1=O`, inactive: 3; with `O=Cc1ccc(O)c2ncccc12`, inactive: 3. For the compound `COc1ccc2c(c1)CCCN2C(N)=Nc1ccc(Cl)cc1`, the NAD/ADPR ratio was inactive: 3. Consider `CN(C)CCCn1c2c3ccccc3ccc2c2oc(=O)c3ccccc3c21`, for which the NAD/ADPR ratio is inactive: 3.

For `Cc1cccnc1NC(=S)Nc1ncccc1C`, the NAD/ADPR ratio is inactive: 3. `CCCNC(=O)c1ccc(Cl)cc1Cl`: the NAD/ADPR ratio is inactive: 3. For the compound `OCCN1CCSC1=S`, the NAD/ADPR ratio is inactive: 3. Regarding `Cc1cc(N2CCN(C)CC2)n2nc(-c3ccc(Cl)cc3)nc2n1`, the NAD/ADPR ratio was inactive: 3.

`Cn1c(=O)c2[nH]c(N3CCCCC3)nc2n(C)c1=O`: the NAD/ADPR ratio is inactive: 3. With `O=C(O)C1OCC2(CO1)COC(C(=O)O)OC2` (stereo not given) the figure was inactive: 3.

Take `O=C(O)c1ccccc1C(=O)Nc1ccccc1[N+](=O)[O-]`: the NAD/ADPR ratio is inactive: 3. With `CC(C)COc1nc2c(c(=O)n(C)c(=O)n2C)n1C`, the NAD/ADPR ratio is inactive: 3. Regarding `COc1ccc(N/C=C2\C(=O)CCc3c2oc2cc(Cl)c(O)c(Cl)c32)cc1`, the NAD/ADPR ratio is inactive: 3. Take `COc1cc(N=Nc2ccccc2C(=O)O)ccc1O`: the NAD/ADPR ratio was inactive: 3. `O=C(CC1(O)CCCCC1)OC1CCCC1`: the NAD/ADPR ratio is inactive: 3. With `NC(=O)CCC(C(=O)O)N1C(=O)C2C3CCC(C3)C2C1=O` (stereo not given) the figure was inactive: 3; with `CCOC(=O)c1cc[nH]c1CC(=O)NC`, inactive: 3. Turning to `N#Cc1nnn(-c2ccc(Cl)cc2)c1N`, the NAD/ADPR ratio was inactive: 3. Turning to `S=C(Nc1ccccc1)c1ccccn1`, the NAD/ADPR ratio is inactive: 3. As for `Nc1ccc2c(c1)nnn2-c1ccccc1`, the NAD/ADPR ratio is inactive: 3. With `NC(=Nc1ccc(N)cc1)C(N)=Nc1ccc(N)cc1` the figure was inactive: 3; with `C=C1CC2(OC1=O)c1ccccc1CCc1ccccc12`, inactive: 3; with `Cc1ccc(S(=O)(=O)N(C)C)cc1[N+](=O)[O-]`, inactive: 3. Turning to `Clc1ccc2nc3ccccc3cc2c1`, the NAD/ADPR ratio was inactive: 3. Turning to `CSc1ccc(NC(=O)Nc2ccccc2C(N)=O)cc1`, the NAD/ADPR ratio is inactive: 3. For the compound `c1ccc2[nH]c(CCCCCc3nc4ccccc4[nH]3)nc2c1`, the NAD/ADPR ratio was inactive: 3.

Turning to `C(=N\Nc1nnn(Cc2ccccc2)n1)/c1ccccc1`, the NAD/ADPR ratio was inactive: 3. As to `CCCCOc1ccc(N=Nc2ccc(N)nc2N)cn1`, the NAD/ADPR ratio is inactive: 3. In the case of `O=C1c2cc([N+](=O)[O-])ccc2-c2cc(Br)c(N=C(NO)C(F)(F)F)cc21`, the NAD/ADPR ratio is inactive: 3. In the case of `Nc1nc(N)nc(-c2ccccc2-c2nc(N)nc(N)n2)n1`, the NAD/ADPR ratio was inactive: 3. Consider `O=C1Nc2ccccc2C1(c1ccc(O)cc1)c1ccc(O)cc1`, for which the NAD/ADPR ratio was inactive: 3.4. As for `CN1C(=CC=C2C=C(I)C(=O)C(I)=C2)C(C)(C)c2ccccc21`, the NAD/ADPR ratio is inactive: 3. For the compound `O=C(Nc1ccc(C2=NCCCN2)cc1)Nc1ccc(C2=NCCCN2)cc1`, the NAD/ADPR ratio is inactive: 3.

With `Cc1cc(N2CCOCC2)nc(N2CCOCC2)n1`, the NAD/ADPR ratio is inactive: 3. In the case of `CC(C)(c1cc(Cl)c(O)c(CN2CCOCC2)c1)c1cc(Cl)c(O)c(CN2CCOCC2)c1`, the NAD/ADPR ratio was inactive: 3. Turning to `CCOc1ccc(NC(=O)N(O)C2(C#N)CCCCC2)cc1`, the NAD/ADPR ratio is inactive: 3.

For `CC(C)c1nc2c([nH]1)c(=O)n(C)c(=O)n2C`, the NAD/ADPR ratio is inactive: 3.

In the case of `O=CN/C=C/c1cc(O)ccc1O`, the NAD/ADPR ratio was inactive: 3. Regarding `CCOC(=O)C(=O)Cc1cccnn1`, the NAD/ADPR ratio was inactive: 3. `O=C1C(Br)=Cc2cccc3cccc1c23`: the NAD/ADPR ratio was inactive: 3. As to `CCSc1ncc(CO)c(N)n1`, the NAD/ADPR ratio was inactive: 3. Consider `OC1COC(OCc2ccccc2)C(O)C1O` (stereo not given), for which the NAD/ADPR ratio was inactive: 3. As to `Nc1cc(N)nc(CS)n1`, the NAD/ADPR ratio is inactive: 3. With `Nc1cc(Nc2ccc(Br)cc2)nc(N)n1`, the NAD/ADPR ratio is inactive: 3. With `Cc1cc2c(cc1[N+](=O)[O-])NC(CNC(C)C)CC2` (stereo not given) the figure was inactive: 3. For the compound `NS(=O)(=O)c1ccc(N=Nc2c(O)c(C(=O)O)cc3ccccc23)cc1`, the NAD/ADPR ratio is inactive: 3. With `CCCCn1c(OC(=S)N(CC)CC)cc(C)nc1=S`, the NAD/ADPR ratio is inactive: 3.

In the case of `Oc1ccccc1-c1nc2c3ccccc3c3ccccc3c2[nH]1`, the NAD/ADPR ratio is inactive: 3. As for `CN(CCC#N)c1ccc(/C=C(\C#N)c2cccc(C(F)(F)F)c2)cc1`, the NAD/ADPR ratio is inactive: 3. Consider `CCCCSc1nc(C(=O)O)cc(=O)[nH]1`, for which the NAD/ADPR ratio was inactive: 3. Take `O=C(O)c1cc(O)ccc1N=Nc1ccccc1`: the NAD/ADPR ratio is inactive: 3. Turning to `CC(C)C(=O)c1ccc(O)c(O)c1`, the NAD/ADPR ratio was inactive: 3.

Turning to `Cc1c(CCO)c(=O)n2n1CCCC2`, the NAD/ADPR ratio is inactive: 3. With `CCn1c(=O)n(C)c2c(=O)n(C)c(=O)n(C)c21` the figure was inactive: 3.

Take `CCn1c2ccccc2c2c3ncc4cccn4c3ccc21`: the NAD/ADPR ratio was inactive: 3. In the case of `Cc1nc2sc3c(c2c(=O)[nH]1)CCCC3`, the NAD/ADPR ratio is inactive: 3. Turning to `CCOC(=O)c1cnn2c(SC)ncnc12`, the NAD/ADPR ratio is inactive: 3. As for `C/C(=N\NC(=S)N1CC2CCC(CC2)C1)c1cnccn1`, the NAD/ADPR ratio is inactive: 3. As for `CCn1c2ccccc2nc2cc3c(cc21)c(Cl)c(=O)c1ccccc13`, the NAD/ADPR ratio was inactive: 3. For `CCC(C)NC(=S)Nc1ccccc1` (stereo not given), the NAD/ADPR ratio is inactive: 3. Consider `COc1cc2c(cc1OC)C(=O)Cc1ccc3c(c1CN(C)CC2)OCO3`, for which the NAD/ADPR ratio is inactive: 3. For the compound `CCCSc1nc2c(c(=O)n(C)c(=O)n2C)n1C`, the NAD/ADPR ratio is inactive: 3. With `NC(=O)NC1NC(=O)NC1=O` (stereo not given), the NAD/ADPR ratio is inactive: 3.

As to `Cc1cc2cc3c(=O)[nH]c(=O)[nH]c3nc2cc1C`, the NAD/ADPR ratio is inactive: 3.

For `O=C1c2cccc3cc([N+](=O)[O-])cc(c23)C(=O)N1CCN1CCCC1`, the NAD/ADPR ratio was inactive: 2.5. As to `CC(C)c1cc(C(F)(F)F)nc(NNc2nc(C(C)C)cc(C(F)(F)F)n2)n1`, the NAD/ADPR ratio was inactive: 3. With `COc1ccc2[nH]c(-c3ccccc3)cc2c1`, the NAD/ADPR ratio was inactive: 3. With `CCC12CCCN3CCc4c(n(c5ccccc45)C(O)(C(=O)OC)C1)C32` (stereo not given) the figure was inactive: 3; with `COc1ccc(C(=S)N2CCN(c3ccccc3C)CC2)cc1`, inactive: 3. For `Cc1c(Cl)cccc1NC(=O)CC1Sc2ccccc2NC1=O` (stereo not given), the NAD/ADPR ratio is inactive: 3. In the case of `Cn1c(C(=O)c2ccncc2)cc2ccccc21`, the NAD/ADPR ratio is inactive: 3. With `Nc1ccc2c(c1Cl)C(=O)c1ccc(N)c(Cl)c1C2=O` the figure was inactive: 3; with `O=[N+]([O-])c1cccnc1Oc1cc(Cl)c(Cl)cc1Cl`, inactive: 3.

As for `CCOc1ccc(/C=C2\NC(=S)NC2=O)cc1`, the NAD/ADPR ratio is inactive: 3. As to `COc1cc2c(O)cc(C(=O)O)c(-c3cc(OC)c(OC)c(OC)c3)c2cc1OC`, the NAD/ADPR ratio was inactive: 3.

In the case of `CC1(C)CC(Nc2ccc(Nc3ccccc3)cc2)CC(C)(C)N1`, the NAD/ADPR ratio was inactive: 3. As for `CSC(=O)NC(=O)NC(=O)c1ccc([N+](=O)[O-])cc1`, the NAD/ADPR ratio is inactive: 3. As for `Cc1nc([N+](=O)[O-])cn1-c1nc2ccccn2c1[N+](=O)[O-]`, the NAD/ADPR ratio was inactive: 3.

Consider `CCOC(=O)Nc1cc2c(c(N)n1)N=C(c1ccccc1)CN2`, for which the NAD/ADPR ratio is inactive: 3. Turning to `CCCc1nc2c([nH]1)c(=O)n(C)c(=O)n2C`, the NAD/ADPR ratio was inactive: 3. As for `CC(C)NCC1CCc2cc(CO)c([N+](=O)[O-])cc2N1` (stereo not given), the NAD/ADPR ratio was inactive: 3.

Regarding `CS/C(N)=N/S(=O)(=O)c1ccc(NC(C)=O)cc1`, the NAD/ADPR ratio was inactive: 3. With `CC(C)N(Cc1ccccc1)S(=O)(=O)c1n[nH]c(C(C)(C)C)n1` the figure was inactive: 3; with `COC1OCC(O)C(NC(=O)N(C)N=O)C1O` (stereo not given), inactive: 3; with `CCCCNC(=O)Nc1ccccc1CC`, inactive: 3. Consider `CC1(C)SC(C)(C)N(C=O)C1C(=O)O` (stereo not given), for which the NAD/ADPR ratio is inactive: 3. Consider `O=C(O)/C=C/C(=O)Nc1ccc(-c2ccccc2)cc1`, for which the NAD/ADPR ratio is inactive: 3. Take `O=C(Oc1ccccc1)N(c1ccccc1)c1ccccc1`: the NAD/ADPR ratio is inactive: 3. Take `COC(=O)C1=CC(=O)N2CCN=C2S1`: the NAD/ADPR ratio is inactive: 3. As for `C=CCN(CC=C)C(=O)Nc1cc(OC)ccc1OC`, the NAD/ADPR ratio was inactive: 3.2. As to `COc1ccc(OC(=O)Nc2ccc([N+](=O)[O-])cc2OC)cc1`, the NAD/ADPR ratio is inactive: 3. With `O=C(/C=C/c1ccccc1)CC(c1ccccc1)N1CCOCC1` (stereo not given) the figure was inactive: 3; with `O=[N+]([O-])c1ccc(/C=C/c2ccncc2)cc1`, inactive: 3; with `Nc1ccn(C2OC(CCl)C(O)C2O)c(=O)n1` (stereo not given), inactive: 3. Take `O=C(O)/C(=C\c1ccccc1)c1ccccc1`: the NAD/ADPR ratio is inactive: 3.

As for `COC(=O)CC1OCC=C2CN3CCC45C6=CC(=O)C(=O)C([N+](=O)[O-])=C6NC4C1C2CC35` (stereo not given), the NAD/ADPR ratio is inactive: 3. With `CCCCCC(=O)N1CCCCC1` the figure was inactive: 3; with `CN(C)c1ccc(N=Nc2ccccn2)cc1`, inactive: 3; with `C=CCNC(=S)Nc1cccc([N+](=O)[O-])c1`, inactive: 3. On to `CN(C)c1ccc(/C=C/c2ccc3ccccc3n2)cc1`, for which the NAD/ADPR ratio is inactive: 3. `CSc1nc(Cl)cc(=O)[nH]1`: the NAD/ADPR ratio was inactive: 3. With `O=c1[nH]nc(-c2cc(-c3ccccc3)nc3ccccc23)o1` the figure was inactive: 3; with `S=c1[nH]ccn1-c1c(Cl)cccc1Cl`, inactive: 3; with `CC(C)NC(=O)c1ccc(C(C)C)cc1`, inactive: 3. With `CCOC(=O)N1CCN(Cc2c(O)ccc3ccccc23)CC1` the figure was inactive: 3. With `CN(C)C(=O)OCC1COc2ccccc2O1` (stereo not given), the NAD/ADPR ratio was inactive: 3. With `O=C(C(Cl)Cl)N1CC2CCC(CC2)C1`, the NAD/ADPR ratio was inactive: 3. In the case of `CC1=NC2=CC=CC3=NC(C(Cl)(Cl)Cl)=NC(=N1)N23`, the NAD/ADPR ratio is inactive: 3. For `c1ccc(Nc2cccc3c(Nc4ccccc4)cccc23)cc1`, the NAD/ADPR ratio was inactive: 3. With `Cc1cccc(C)c1NC(=O)Nc1ccc(S(N)(=O)=O)cc1`, the NAD/ADPR ratio is inactive: 3.

`C=C(C)C(=O)Nc1ccc(NC(C)C)cc1`: the NAD/ADPR ratio was inactive: 3.

In the case of `O=C(c1ccccc1)c1ccccc1C(=O)c1ccccc1`, the NAD/ADPR ratio is inactive: 3.

As for `NS(=O)(=O)c1cc2c(cc1Cl)NC(CC1CCCC1)NS2(=O)=O` (stereo not given), the NAD/ADPR ratio is inactive: 3. As to `CCc1oc2ccccc2c1C(=O)c1cc(Br)c(O)c(Br)c1`, the NAD/ADPR ratio was inactive: 3. As for `Nc1ccc(Nc2ccccc2)c(S(=O)(=O)O)c1`, the NAD/ADPR ratio was inactive: 3. As for `NC(=O)Nc1ccc(Nc2ccccc2)cc1`, the NAD/ADPR ratio was inactive: 3.

Regarding `Cc1cc2nc(-c3ccccn3)c(-c3ccccn3)nc2cc1C`, the NAD/ADPR ratio was inactive: 3. Take `CCSc1nc(=S)cc(C)[nH]1`: the NAD/ADPR ratio is inactive: 3.

For the origin of these results see PubChem BioAssay AID1508615 (Milbrandt Lab, Department of Genetics, Washington …, 2020).
